PubChem BioAssay AID652272, Drosophila RNAi Screening Center | 2013
The screen tested about 21,000 reagents; shown is a random part of those that have a named target and a result. In the full data, 503 (2.4%) were called active. 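Raw plate light values, not normalised; calls rest on replicate z-scores that were not deposited; hits include reporter decreases as well as increases.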 Entries without a mark were called inactive. The numbers tell different reagents against one gene apart. Names joined by + are all predicted targets of the reagent. Reagent sequences are not shown. Not stated in the record: the amount of reagent, the time to read-out.

Screen: 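Genes whose knock-down decreases or increases Hedgehog reporter output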 (primary screen)
Cell system: Drosophila clone 8 (Cl8) cells
Knock-down reagent: long dsRNA against Drosophila genes
Read-out: 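Plate reader light from a firefly reporter under a ptc promoter fragment that responds to Hedgehog, with Renilla light as transfection reference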
Direction: firefly Hh reporter signal: higher = more ptc reporter light; Renilla reference signal: higher = more Renilla control light
Hit rule: 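Called a hit if the two-replicate mean z-score lies below -2 or above +3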
Meaning of the calls: active = hit: reporter lowered or raised; inactive = not a hit

| Target gene | dsRNA no. | firefly Hh reporter signal, replicate 1 | firefly Hh reporter signal, replicate 2 | firefly Hh reporter signal, replicate 3 | Renilla reference signal, replicate 1 | Renilla reference signal, replicate 2 |
| --- | --- | --- | --- | --- | --- | --- |
| Tango11 (Transport and Golgi organization 11) | 1 | 1.52e5 | 2.48e5 | – | 3635 | 10672 |
| Tango11 (Transport and Golgi organization 11) | 2 | 1.20e5 | 1.59e5 | – | 3200 | 7465 |
| CG9254 | 1 | 1.31e5 | 48423 | – | 3504 | 4758 |
| DhpD (Dihydropterin deaminase) | 1 | 1.45e5 | 67642 | – | 5681 | 2818 |
| CG8916 | 1 | 54775 | 1.78e5 | – | 1863 | 7264 |
| Slmap (Sarcolemma associated protein) | 1 | 51050 | 43923 | – | 1495 | 4345 |
| Snm1 | 1 | 1.70e5 | 92880 | – | 6422 | 4140 |
| CG30154 | 1 | 1.26e5 | 2.68e5 | – | 3552 | 11399 |
| CG6788 | 1 | 60260 | 1.65e5 | – | 2256 | 7928 |
| CG11771 | 1 | 76677 | 89529 | – | 3015 | 3431 |
| Pus1 (Pseudouridine synthase 1) | 1 | 7.55e5 | 1.38e5 | – | 43193 | 3532 |
| tinc (tincar) | 1 | 4.65e5 | 87121 | – | 26684 | 2208 |
| tinc (tincar) | 2 | 4.63e5 | 89196 | – | 25640 | 2317 |
| tinc (tincar) | 3 | 3.81e5 | 71901 | – | 20938 | 2090 |
| tinc (tincar) | 4 | 5.14e5 | 87782 | – | 33435 | 1872 |
| cort (cortex) | 1 | 5.24e5 | 92265 | – | 4290 | 4290 |
| CG15641 | 1 | 62040 | 2.03e5 | – | 1414 | 7462 |
| Cib2 (Calcium and integrin binding family member 2) | 1 | 1.05e5 | 42685 | – | 3011 | 3881 |
| t (tan) | 1 | 1.09e5 | 1.64e5 | – | 3427 | 7048 |
| CG2765 | 1 | 65937 | 73067 | – | 3204 | 3082 |
| CG1116 | 1 | 88837 | 1.11e5 | – | 3402 | 3120 |
| AP-2mu (Adaptor Protein complex 2, mu subunit) | 1 | 1.39e5 | 1.12e5 | – | 5568 | 4589 |
| Klp67A + CG34456 | 1 | 69474 | 66858 | 68452 | 5128 | 5138 |
| CG7367 | 1 | 1.02e5 | 59600 | – | 2859 | 4845 |
| nord | 1 | 78128 | 52168 | – | 2144 | 4436 |
| nord | 2 | 60988 | 34418 | – | 2123 | 3543 |
| CG9899 | 1 | 1.47e5 | 68365 | – | 3719 | 6455 |
| CG12112 | 1 | 1.68e5 | 1.29e5 | – | 4064 | 3160 |
| Adk2 (Adenosine kinase 2) | 1 | 1.11e5 | 55409 | – | 4400 | 1466 |
| Or67b (Odorant receptor 67b) | 1 | 48085 | 50896 | 69861 | 4544 | 4253 |
| Ugt49B1 (UDP-glycosyltransferase family 49 member B1) | 1 | 87861 | 59860 | – | 2029 | 5530 |
| beta4GalNAcTB (beta1,4-N-acetylgalactosaminyltransferase B) | 1 | 1.45e5 | 1.17e5 | – | 5171 | 2763 |
| Nlg3 (Neuroligin 3) | 1 | 1.99e5 | – | – | 4585 | – |
| Nlg3 (Neuroligin 3) | 2 | 55323 | 1.14e5 | – | 2133 | 3392 |
| Nlg3 (Neuroligin 3) | 3 | 61969 | 88592 | – | 2946 | 3620 |
| Nlg3 (Neuroligin 3) | 4 | 53600 | 86140 | – | 956 | 2580 |
| Eip74EF (Ecdysone-induced protein 74EF) | 1 | 34820 | 49718 | – | 1473 | 1971 |
| Eip74EF (Ecdysone-induced protein 74EF) | 2 | 64336 | – | – | 2517 | 2001 |
| Ir94g (Ionotropic receptor 94g) | 1 | 7.16e5 | 1.41e5 | – | 36756 | 3188 |
| Cngl (Cyclic nucleotide-gated ion channel-like) | 1 | 8.40e5 | 2.80e5 | – | 44832 | 6589 |
| Cngl (Cyclic nucleotide-gated ion channel-like) | 2 | 1.22e5 | 81212 | – | 2880 | 1747 |
| Cngl (Cyclic nucleotide-gated ion channel-like) | 3 | 1.46e5 (active) | 66855 | – | 9364 | 2992 |
| Dpm1 (Dolichyl-phosphate mannosyltransferase subunit 1) | 1 | 86212 | 43064 | – | 2205 | 4129 |
| Orc4 (Origin recognition complex subunit 4) | 1 | 75056 | 19385 | – | 3386 | 608 |
| Tsp66E (Tetraspanin 66E) | 1 | 34705 | 50176 | – | 3145 | 3792 |
| Zasp67 (Z band alternatively spliced PDZ-motif protein 67) | 1 | 46295 | 65730 | 76379 | 6054 | 4976 |
| fon (fondue) | 1 | 74267 | 79173 | – | 3491 | 3317 |
| UQCR-6.4 (Ubiquinol-cytochrome c reductase 6.4 kDa subunit) | 1 | 75178 | 38854 | – | 2072 | 2714 |
| CG44838 | 1 | 50066 | 16133 | – | 2918 | 947 |
| CG44838 | 2 | 67172 | 42378 | – | 2786 | 1648 |
| CG10602 | 1 | 84818 | 63794 | – | 3548 | 2736 |
| Cog3 (Component of oligomeric golgi complex 3) | 1 | 84393 | 35558 | – | 4086 | 2108 |
| Prx6a (Peroxiredoxin 6a) | 1 | 79254 | 96137 | – | 3868 | 3926 |
| Ntan1 (N-terminal amidohydrolase 1) | 1 | 1.12e5 | 70675 | – | 3049 | 4886 |
| stan (starry night) | 1 | 29272 (active) | 47096 | – | 1136 | 2776 |
| stan (starry night) | 2 | 93318 | 61927 | – | 2288 | 4883 |
| CG34288 | 1 | 1872 | 2.35e5 | – | 384 | 4262 |

An excerpt taken from the entries so far:
| Target gene | dsRNA no. | firefly Hh reporter signal, replicate 1 | firefly Hh reporter signal, replicate 2 | firefly Hh reporter signal, replicate 3 | Renilla reference signal, replicate 1 | Renilla reference signal, replicate 2 |
| --- | --- | --- | --- | --- | --- | --- |
| CG6788 | 1 | 60260 | 1.65e5 | – | 2256 | 7928 |
| CG11771 | 1 | 76677 | 89529 | – | 3015 | 3431 |
| Pus1 (Pseudouridine synthase 1) | 1 | 7.55e5 | 1.38e5 | – | 43193 | 3532 |
| tinc (tincar) | 1 | 4.65e5 | 87121 | – | 26684 | 2208 |
